Structures can show the parent of a compound that is named as a salt. The list shows a part of the results. Rule as the data show it: active = 0.7 or more and inactive = the rest. Single values are uncertain, as repeats are few or missing.

This assay relates to MiaPaCa-2 CLSA-25. In words: cell death relative to DMSO vehicle (fraction); higher = more cytotoxic. Conditions: 5 µM; treatment time 48 h; medium cystine 25 µM.
Regarding `Cc1ncc(C[n+]2csc(CCOP(=O)(O)OP(=O)(O)O)c2C)c(N)n1` [Thiamine pyrophosphate], the cell death is inactive: 0.0372.

Regarding `C[C@H]1CO[C@@H]2Cn3cc(C(=O)NCc4ccc(F)cc4F)c(=O)c(O)c3C(=O)N12` [Cabotegravir], the cell death is inactive: 0.233.

As to `COc1c(C)c2c(c(O)c1C/C=C(\C)CCC(=O)O)C(=O)OC2` [Mycophenolic acid], the cell death was inactive: 0.106.

Take `OC[C@H]1O[C@@H](c2ccc(F)c(Cc3cc4ccccc4s3)c2)[C@H](O)[C@@H](O)[C@@H]1O` [Ipragliflozin]: the cell death is inactive: 0.158.

Take `C[C@@H]1O[C@@H](O[C@H]2[C@H](Oc3cc(O)c4c(c3)O[C@H](c3ccc(O)cc3)CC4=O)O[C@H](CO)[C@@H](O)[C@@H]2O)[C@H](O)[C@H](O)[C@H]1O` [Naringin]: the cell death is inactive: 0.0201.

Regarding `COC(=O)N[C@H](C(=O)N[C@@H](Cc1ccccc1)[C@@H](O)CN(Cc1ccc(-c2ccccn2)cc1)NC(=O)[C@@H](NC(=O)OC)C(C)(C)C)C(C)(C)C` [Atazanavir sulfate], the cell death was inactive: 0.0313.

`O=Cc1ccc(O)cc1` [p-Hydroxybenzaldehyde]: the cell death was inactive: 0.0364.

As to `COC(=O)[C@H]1[C@H]2C[C@@H]3c4[nH]c5cc(OC)ccc5c4CCN3C[C@H]2C[C@@H](OC(=O)c2cc(OC)c(OC)c(OC)c2)[C@@H]1OC` [Reserpine], the cell death is inactive: 0.108.

As to `O=C(NNc1ccccc1)c1ccncc1` [PluriSln 1], the cell death was inactive: 0.164.

As to `CC(C)(Sc1ccncc1-c1ccc(C#N)c2ccccc12)C(=O)O` [Verinurad], the cell death is inactive: 0.326.

Turning to `COCCOC(=O)C1=C(C)NC(C)=C(C(=O)OC(C)C)C1c1cccc([N+](=O)[O-])c1` (stereo not drawn) [Nimodipine], the cell death was inactive: 0.0286.

Take `CCCCC(=O)N(Cc1ccc(-c2ccccc2-c2nnn[nH]2)cc1)[C@H](C(=O)O)C(C)C.CCOC(=O)[C@H](C)C[C@@H](Cc1ccc(-c2ccccc2)cc1)NC(=O)CCC(=O)O`: the cell death is inactive: 0.593.

Take `CCOC(=O)O[C@]1(C(=O)OCCl)CC[C@H]2[C@@H]3CCC4=CC(=O)C=C[C@]4(C)[C@H]3[C@@H](O)C[C@@]21C` [Loteprednol etabonate]: the cell death is inactive: 0.514.

`COc1cc(F)c(C(C)C)cc1-c1ccc(C(F)(F)F)cc1CN1C(=O)O[C@H](c2cc(C(F)(F)F)cc(C(F)(F)F)c2)[C@@H]1C` [Anacetrapib]: the cell death is inactive: -0.0104.

Take `O=C(Nc1cnccc1Cl)N1CCN(Cc2ccc3c(c2)OC(F)(F)O3)CC1`: the cell death is inactive: 0.615.

For the compound `C[C@@](Cc1ccc(O)c(O)c1)(NN)C(=O)O` [Carbidopa Hydrate], the cell death was inactive: 0.475.

On to `CCCCCCCCCCCCCCCC(=O)NCCO` [Palmidrol], for which the cell death is inactive: 0.164.

For the compound `O=C(O)CNC(=O)C1C(=O)N(C2CCCCC2)C(=O)N(C2CCCCC2)C1=O` [Daprodustat], the cell death is inactive: 0.544.

In the case of `C[C@H](CCC(=O)O)[C@H]1CC[C@H]2[C@@H]3[C@H](O)C[C@@H]4C[C@H](O)CC[C@]4(C)[C@H]3CC[C@]12C` [Chenodeoxycholic acid], the cell death is inactive: 0.0468.

As to `C[C@]12CC[C@H]3[C@@H](CC[C@@]45O[C@@H]4C(O)=C(C#N)C[C@]35C)[C@@H]1CC[C@@H]2O` [Trilostane], the cell death is inactive: 0.124.

Consider `COc1ccc2c(c1)[nH]c1c(C)nccc12` [Harmine], for which the cell death is inactive: 0.324.

Take `CCN[C@H]1C[C@H](C)S(=O)(=O)c2sc(S(N)(=O)=O)cc21` [Dorzolamide hydrochloride]: the cell death was inactive: 0.0364.

On to `NC(=O)NCCC(=O)O` [3-Ureidopropionic acid], for which the cell death was inactive: 0.383.

`Cc1ncc(CO)c(CO)c1O` [Pyridoxine hydrochloride]: the cell death is inactive: 0.141.

For the compound `O=C(CCN1CCN(C(=O)OCc2cc(Cl)cc(Cl)c2)CC1)c1ccc2[nH]c(=O)oc2c1`, the cell death is inactive: 0.0511.

Consider `C=C(C)[C@H]1Cc2c(ccc3c2O[C@@H]2COc4cc(OC)c(OC)cc4[C@@H]2C3=O)O1` [Rotenone], for which the cell death is inactive: 0.629.

`CCOC(=O)[C@H](CCc1ccccc1)N[C@H]1CS[C@H](c2cccs2)CN(CC(=O)O)C1=O` [Temocapril HCl]: the cell death was inactive: 0.196.

For `CN1CC(=O)NC1=N` [Creatinine], the cell death was inactive: 0.0225.
